Laboratory results reported in patent publication US6613745B1, “Therapeutic molecules derived from snake venom” (National University of Singapore, priority 1997, dated 2003).
Part of at least one peptide drawing is inferred or uncertain, most often the ends. Peptide text beside a SMILES is read from it.

Assays:
Swiss albino mice [1] = experiment: Effects of naloxone and L-NAME on peptide analgesia in the hot-plate test; assay type: in vivo; details: peptide i.v. 72 ng/g, hot-plate 30 minutes later, FIG. 3
Swiss albino mice [2] = experiment: Hot-plate test; assay type: in vivo; details: for hot-plate latency time: 55° C., compared to saline-administered controls, FIG. 2

With `C[C@@H](O)[C@H](NC(=O)[C@@H]1CCCN1C(=O)[C@H](Cc1ccccc1)NC(=O)[C@@H]1CCCN1C(=O)[C@@H](N)CC(N)=O)C(=O)N[C@@H](Cc1c[nH]c2ccccc12)C(=O)N[C@@H](CCCNC(=N)N)C(=O)N[C@@H](CCCCN)C(=O)N[C@@H](CCCNC(=N)N)C(=O)N1CCC[C@H]1C(=O)NCC(=O)O` [synthesized peptide, Asn-Pro-Phe-Pro-Thr-Trp-Arg-Lys-Arg-Pro-Gly] (H-NPFPTWRKRPG-OH) the “analgesic effect of the peptide with L-NAME” value (Swiss albino mice [1]; L-NAME 20 mg/kg i.v. 1.5 hours later) was “significantly decreased”, the “analgesic effect of the peptide with naloxone” value (Swiss albino mice [1]; naloxone 6 mg/kg i.v. 1.5 h later) was “effectively attenuated” and the analgesic activity (Swiss albino mice [2]; hot-plate test, conclusion) was “has analgesic activity”. For the same compound, the hot-plate latency time (Swiss albino mice [2]; i.v. 72 ng/g) was “significant increases” and the hot-plate latency time (Swiss albino mice [2]; p.o. 360 ng/g) was “significant increases”.
